# Results reported in the supplement of paper PMC8728848.
# This is one part of the list.
# What was measured:
# Assay in all cases: glycan array binding signal (z-score within array); higher = stronger binding
# Conditions in all cases: glycan notation: IUPAC condensed, linker removed
# [1] = target: Gal(b1-4)GlcNAc(b1-3)Gal(b1-4)GlcNAc(b1-3)Gal(b1-4)GlcNAc(b1-3)Gal(b1-4)GlcNAc(b1-2)Man(a1-3)[Gal(b1-4)GlcNAc(b1-3)Gal(b1-4)GlcNAc(b1-3)Gal(b1-4)GlcNAc(b1-3)Gal(b1-4)GlcNAc(b1-2)Man(a1-6)]Man(b1-4)GlcNAc(b1-4)[Fuc(a1-6)]GlcNAc
# Summary of the method: (§1)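 From the Consortium for Functional Glycomics database, 3228 arrays were curated, keeping only those whose protein sequence was available. Binding is given as a within-array Z-score averaged across arrays sharing a protein sequence and across linkers. Negative Z-scores can be read as non-binding.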
# [2] = target: Gal(b1-4)GlcNAc(b1-3)Gal(b1-4)GlcNAc(b1-3)Gal(b1-4)GlcNAc(b1-3)Gal(b1-4)GlcNAc(b1-2)[Gal(b1-4)GlcNAc(b1-3)Gal(b1-4)GlcNAc(b1-3)Gal(b1-4)GlcNAc(b1-3)Gal(b1-4)GlcNAc(b1-6)]Man(a1-6)[Gal(b1-4)GlcNAc(b1-3)Gal(b1-4)GlcNAc(b1-3)Gal(b1-4)GlcNAc(b1-3)Gal(b1-4)GlcNAc(b1-2)Man(a1-3)]Man(b1-4)GlcNAc(b1-4)[Fuc(a1-6)]GlcNAc
# Summary of the method: as §1
# [3] = target: Gal(b1-4)GlcNAc(b1-3)Gal(b1-4)GlcNAc(b1-3)Gal(b1-4)GlcNAc(b1-3)Gal(b1-4)GlcNAc(b1-3)Gal(b1-4)GlcNAc(b1-2)Man(a1-3)[Gal(b1-4)GlcNAc(b1-3)Gal(b1-4)GlcNAc(b1-3)Gal(b1-4)GlcNAc(b1-3)Gal(b1-4)GlcNAc(b1-3)Gal(b1-4)GlcNAc(b1-2)Man(a1-6)]Man(b1-4)GlcNAc(b1-4)GlcNAc
# Summary of the method: as §1
# [4] = target: Gal(b1-4)GlcNAc(b1-3)Gal(b1-4)GlcNAc(b1-3)Gal(b1-4)GlcNAc(b1-3)Gal(b1-4)GlcNAc(b1-3)Gal(b1-4)GlcNAc(b1-2)Man(a1-3)[Gal(b1-4)GlcNAc(b1-3)Gal(b1-4)GlcNAc(b1-3)Gal(b1-4)GlcNAc(b1-3)Gal(b1-4)GlcNAc(b1-3)Gal(b1-4)GlcNAc(b1-2)Man(a1-6)]Man(b1-4)GlcNAc(b1-4)[Fuc(a1-6)]GlcNAc
# Summary of the method: as §1
# [5] = target: Gal(b1-4)GlcNAc(b1-3)Gal(b1-4)GlcNAc(b1-3)Gal(b1-4)GlcNAc(b1-3)Gal(b1-4)GlcNAc(b1-3)Gal(b1-4)GlcNAc(b1-2)[Gal(b1-4)GlcNAc(b1-3)Gal(b1-4)GlcNAc(b1-3)Gal(b1-4)GlcNAc(b1-3)Gal(b1-4)GlcNAc(b1-3)Gal(b1-4)GlcNAc(b1-6)]Man(a1-6)[Gal(b1-4)GlcNAc(b1-3)Gal(b1-4)GlcNAc(b1-3)Gal(b1-4)GlcNAc(b1-3)Gal(b1-4)GlcNAc(b1-3)Gal(b1-4)GlcNAc(b1-2)Man(a1-3)]Man(b1-4)GlcNAc(b1-4)[Fuc(a1-6)]GlcNAc
# Summary of the method: as §1
# [6] = target: Gal(b1-4)GlcNAc(b1-3)Gal(b1-4)GlcNAc(b1-3)Gal(b1-4)GlcNAc(b1-3)Gal(b1-4)GlcNAc(b1-3)Gal(b1-4)GlcNAc(b1-3)Gal(b1-4)GlcNAc(b1-2)Man(a1-3)[Gal(b1-4)GlcNAc(b1-3)Gal(b1-4)GlcNAc(b1-3)Gal(b1-4)GlcNAc(b1-3)Gal(b1-4)GlcNAc(b1-3)Gal(b1-4)GlcNAc(b1-3)Gal(b1-4)GlcNAc(b1-2)Man(a1-6)]Man(b1-4)GlcNAc(b1-4)GlcNAc
# Summary of the method: as §1
# [7] = target: Gal(b1-4)GlcNAc(b1-3)Gal(b1-4)GlcNAc(b1-3)GalNAc
# Summary of the method: as §1
# [8] = target: Gal(b1-4)GlcNAc(b1-3)Gal(b1-4)GlcNAc(b1-3)[Gal(b1-4)GlcNAc(b1-3)Gal(b1-4)GlcNAc(b1-6)]GalNAc
# Summary of the method: as §1
# [9] = target: Gal(b1-4)GlcNAc(b1-3)Gal(b1-4)GlcNAc(b1-6)[Gal(b1-3)]GalNAc
# Summary of the method: as §1
# [10] = target: Gal(b1-4)GlcNAc(b1-3)Gal(b1-4)[Fuc(a1-3)]GlcNAc(b1-3)Gal(b1-4)[Fuc(a1-3)]GlcNAc
# Summary of the method: as §1
# [11] = target: Gal(b1-4)GlcNAc(b1-3)GalNAc
# Summary of the method: as §1
# [12] = target: Gal(b1-4)GlcNAc(b1-3)[Fuc(a1-3)GlcNAc(b1-6)]Gal(b1-4)Glc
# Summary of the method: as §1
# [13] = target: Gal(b1-4)GlcNAc(b1-3)[Gal(b1-4)GlcNAc(b1-6)]Gal(b1-4)GlcNAc
# Summary of the method: as §1
# [14] = target: Gal(b1-4)GlcNAc(b1-3)[GlcNAc(b1-6)]Gal(b1-4)GlcNAc
# Summary of the method: as §1
# [15] = target: Gal(b1-4)GlcNAc(b1-6)Gal(b1-4)GlcNAc
# Summary of the method: as §1
# [16] = target: Gal(b1-4)GlcNAc(b1-6)GalNAc
# Summary of the method: as §1
# [17] = target: Gal(b1-4)GlcNAc(b1-6)[Gal(b1-3)]GalNAc
# Summary of the method: as §1
# [18] = target: Gal(b1-4)GlcNAc(b1-6)[Gal(b1-4)GlcNAc(b1-3)]GalNAc
# Summary of the method: as §1
# Gal(b1-4)GlcNAc6P = target: Gal(b1-4)GlcNAc6P
# Summary of the method: as §1
# Gal(b1-6)Gal = target: Gal(b1-6)Gal
# Summary of the method: as §1
# Gal3S(b1-3)GalNAc = target: Gal3S(b1-3)GalNAc
# Summary of the method: as §1
# Gal3S(b1-3)GlcNAc = target: Gal3S(b1-3)GlcNAc
# Summary of the method: as §1
# [19] = target: Gal3S(b1-3)[Fuc(a1-4)]GlcNAc
# Summary of the method: as §1
binder,measurement,setting,value
Wzz (Escherichia coli) (protein) MRTWKFPSVRVMMRVENNNVSGQNHDPEQIDLIDLLVQLWRGKMTIIISVIVAIVLAIGYLAVAKEKWTSTAIITQPDVGQIAGYNNAMNVIYGQAAPKVSDLQETLIGRFSSAFSALAETLDNQEEPEKLTIEPSVKNQQLPLTVSYVGQTAEGAQMKLAQYIQQVDDKVNQELEKDLKDNIALGRKNLQDSLRTQEVVAQEQKDLRIRQIQEALQYANQAQVTKPQIQQTGEDITQDTLFLLGSEALESMIKHEATRPLVFSSNYYQTRQNLLDIDNLDVDKLDIHAYLYVMKPTLPIRRDSPKKAITLILAVLLGGMVGAGIVLGRNALRNYNAK,glycan array binding signal (z-score),[1],-0.227
same,glycan array binding signal (z-score),[2],-0.147
same,glycan array binding signal (z-score),[3],-0.287
same,glycan array binding signal (z-score),[4],-0.081
same,glycan array binding signal (z-score),[5],0.47
same,glycan array binding signal (z-score),[6],0.333
same,glycan array binding signal (z-score),[7],0.433
same,glycan array binding signal (z-score),[8],0.129
same,glycan array binding signal (z-score),[9],0.509
same,glycan array binding signal (z-score),[10],-0.331
same,glycan array binding signal (z-score),[11],-0.354
same,glycan array binding signal (z-score),[12],-0.732
same,glycan array binding signal (z-score),[13],-0.539
same,glycan array binding signal (z-score),[14],-0.974
same,glycan array binding signal (z-score),[15],0.404
same,glycan array binding signal (z-score),[16],0.775
same,glycan array binding signal (z-score),[17],-0.482
same,glycan array binding signal (z-score),[18],0.204
same,glycan array binding signal (z-score),Gal(b1-4)GlcNAc6P,0.064
same,glycan array binding signal (z-score),Gal(b1-6)Gal,-0.019
same,glycan array binding signal (z-score),Gal3S(b1-3)GalNAc,-0.01
same,glycan array binding signal (z-score),Gal3S(b1-3)GlcNAc,-0.401
same,glycan array binding signal (z-score),[19],-0.303

# Exported as tab-separated lines: part of the list above.
binder	measurement	setting	value
Wzz (Escherichia coli) (protein) MRTWKFPSVRVMMRVENNNVSGQNHDPEQIDLIDLLVQLWRGKMTIIISVIVAIVLAIGYLAVAKEKWTSTAIITQPDVGQIAGYNNAMNVIYGQAAPKVSDLQETLIGRFSSAFSALAETLDNQEEPEKLTIEPSVKNQQLPLTVSYVGQTAEGAQMKLAQYIQQVDDKVNQELEKDLKDNIALGRKNLQDSLRTQEVVAQEQKDLRIRQIQEALQYANQAQVTKPQIQQTGEDITQDTLFLLGSEALESMIKHEATRPLVFSSNYYQTRQNLLDIDNLDVDKLDIHAYLYVMKPTLPIRRDSPKKAITLILAVLLGGMVGAGIVLGRNALRNYNAK	glycan array binding signal (z-score)	[14]	-0.974
same	glycan array binding signal (z-score)	[15]	0.404
